This assay deals with AXL in human lung tissue (human (endogenous in human lung tissue)) (UniProt P30530). Nature of the assay: FRET or BRET. A general note: In BRET a luciferase serves as donor, and the signal depends on an acceptor being close.

Chains of the proteins cited; added tags and fusions are not shown. Residues count along the entry.
UniProt P30530, residues 26-894: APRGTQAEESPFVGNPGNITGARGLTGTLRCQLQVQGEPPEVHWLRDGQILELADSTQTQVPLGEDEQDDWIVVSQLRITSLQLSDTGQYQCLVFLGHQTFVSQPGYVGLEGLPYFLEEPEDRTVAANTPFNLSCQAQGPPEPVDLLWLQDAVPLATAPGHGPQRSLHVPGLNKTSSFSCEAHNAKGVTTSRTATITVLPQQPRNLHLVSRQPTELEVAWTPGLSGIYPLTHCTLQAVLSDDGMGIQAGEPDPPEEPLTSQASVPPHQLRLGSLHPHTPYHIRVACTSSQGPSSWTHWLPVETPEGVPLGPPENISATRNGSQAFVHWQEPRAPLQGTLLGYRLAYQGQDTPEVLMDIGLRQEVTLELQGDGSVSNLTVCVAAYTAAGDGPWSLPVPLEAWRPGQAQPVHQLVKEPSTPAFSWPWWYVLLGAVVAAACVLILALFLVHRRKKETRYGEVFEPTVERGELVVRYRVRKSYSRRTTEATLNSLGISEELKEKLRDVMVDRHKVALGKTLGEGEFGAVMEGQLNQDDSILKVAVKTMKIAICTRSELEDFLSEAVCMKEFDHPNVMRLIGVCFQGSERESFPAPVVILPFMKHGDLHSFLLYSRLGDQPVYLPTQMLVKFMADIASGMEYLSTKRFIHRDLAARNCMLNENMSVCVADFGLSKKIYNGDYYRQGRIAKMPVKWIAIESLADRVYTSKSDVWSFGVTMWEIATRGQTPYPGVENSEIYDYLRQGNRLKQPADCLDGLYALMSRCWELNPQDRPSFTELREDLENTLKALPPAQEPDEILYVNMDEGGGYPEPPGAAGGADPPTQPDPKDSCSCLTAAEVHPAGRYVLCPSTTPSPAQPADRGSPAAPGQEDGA

No constants are given. Whether binding was seen depends on the method and setting. Binding seen in cells or lysates may run through a third protein. Some binding calls cover weakened binding; strength is not graded here.

B1: PROS1 in human lung tissue (ligand, UniProt P07225 42-676)
chain: ANSLLEETKQGNLERECIEELCNKEEAREVFENDPETDYFYPKYLVCLRSFQTGLFTAARQSTNAYPDLRSCVNAIPDQCSPLPCNEDGYMSCKDGKASFTCTCKPGWQGEKCEFDINECKDPSNINGGCSQICDNTPGSYHCSCKNGFVMLSNKKDCKDVDECSLKPSICGTAVCKNIPGDFECECPEGYRYNLKSKSCEDIDECSENMCAQLCVNYPGGYTCYCDGKKGFKLAQDQKSCEVVSVCLPLNLDTKYELLYLAEQFAGVVLYLKFRLPEISRFSAEFDFRTYDSEGVILYAESIDHSAWLLIALRGGKIEVQLKNEHTSKITTGGDVINNGLWNMVSVEELEHSISIKIAKEAVMDINKPGPLFKPENGLLETKVYFAGFPRKVESELIKPINPRLDGCIRSWNLMKQGASGIKEIIQEKQNKHCLVTVEKGSYYPGSGIAQFHIDYNNVSSAEGWHVNVTLNIRPSTGTGVMLALVSGNNTVPFAVSLVDSTSEKSQDILLSVENTVIYRIQALSLCSDQQSHLEFRVNRNNLELSTPLKIETISHEDLQRQLAVLDKAMKAKVATYLGGLPDVPFSATPVNAFYNGCMEVNINGVQLDLDEAISKHNDIRAHSCPSVWKKTKNS
Consider B1, for which the binding result is on record as “binds”.

The values above are taken from article doi:10.1101/2025.04.07.647567 (bioRxiv, 2025).
